Reference: patent US8979831B2 (priority 2008, dated 2015)
Where “and” joins values, the source holds several entries; their conditions need not be identical. Equal entries are not always repeated. Where two headings read alike, the source gives them in different places. This continues a long series; more values of the same kind are listed elsewhere.

Test system: porcine liver samples
Conditions: for Temp: 100 microliters alone

With CC(=O)Cl [Acetyl Chloride] the Temp (0:00 min) was 20.5 C. and 19.7 C. and 18.8 C. and 17.4 C, the Temp (0:15 min) was 34.2 C. and 30.2 C. and 26.3 C. and 23.6 C and the Temp (0:30 min) was 30.1 C. and 27.4 C. and 24 C. and 23.2 C. For the same compound, the Temp (0:45 min) was 28.5 C. and 25.1 C. and 23.7 C. and 23 C, the Temp (1:15 min) was 23.6 C. and 23.1 C. and 22.2 C and the Temp (1:30 min) was 25.2 C. and 22.2 C. and 22.7 C. and 21.7 C. For the same compound, the Temp (1:45 min) was 25.1 C. and 22.2 C. and 22.6 C. and 21.5 C, the Temp (2:00 min) was 24.5 C. and 21.9 C. and 22.2 C. and 21.3 C and the Temp (2:15 min) was 24 C. and 21.6 C. and 22 C. and 21.1 C. The Temp (2:30 min) was 23.6 C. and 21.5 C. and 21.7 C. and 20.9 C, the Temp (2:45 min) was 23.3 C. and 21.5 C. and 20.8 C and the Temp (3:00 min) was 22.9 C. and 21.5 C. and 21.3 C. and 20.8 C. The Temp (3:15 min) was 22.6 C. and 21.4 C. and 21.2 C. and 20.7 C, the Temp (3:30 min) was 22.4 C. and 21.2 C. and 21.1 C. and 20.6 C and the Temp (3:45 min) was 22.2 C. and 21.1 C. and 21 C. and 20.6 C. For the same compound, the Temp (4:00 min) was 22 C. and 20.9 C. and 20.5 C, the Temp (4:15 min) was 21.8 C. and 20.9 C. and 20.8 C. and 20.4 C and the Temp (4:45 min) was 21.5 C. and 20.7 C. and 20.6 C. and 20.3 C. The Temp (5:00 min) was 21.4 C. and 20.7 C. and 20.5 C. and 20.3 C.

With CC(=O)OC(C)=O [Acetic Anhydride] the pH (200 microliters alone, 0:00 min) was 5.92 and 7.42 and 6.35 and 6.28, the pH (200 microliters alone, 0:15 min) was 5.30 and 3.65 and 3.56 and 5.64 and 6.14 and the pH (200 microliters alone, 0:30 min) was 5.17 and 3.54 and 3.41 and 5.62 and 5.21. The pH (200 microliters alone, 0:45 min) was 5.01 and 3.50 and 3.28 and 5.50 and 4.91, the pH (200 microliters alone, 1:15 min) was 4.80 and 3.27 and 3.16 and 5.23 and 4.78 and the pH (200 microliters alone, 1:30 min) was 4.68 and 3.20 and 3.07 and 5.01 and 4.72. For the same compound, the pH (200 microliters alone, 1:45 min) was 4.56 and 3.12 and 3.03 and 4.64 and 4.66, the pH (200 microliters alone, 2:00 min) was 4.51 and 3.09 and 2.95 and 4.49 and 5.44 and the pH (200 microliters alone, 2:15 min) was 4.51 and 3.03 and 2.92 and 4.39 and 4.45. For the same compound, the pH (200 microliters alone, 2:30 min) was 4.45 and 2.96 and 2.89 and 4.33 and 4.20, the pH (200 microliters alone, 2:45 min) was 4.39 and 2.92 and 2.85 and 4.23 and 4.13 and the pH (200 microliters alone, 3:00 min) was 4.33 and 2.90 and 2.82 and 4.17 and 4.06. The pH (200 microliters alone, 3:15 min) was 4.29 and 2.88 and 2.78 and 4.09 and 4.02, the pH (200 microliters alone, 3:30 min) was 4.26 and 2.84 and 2.75 and 4.07 and 3.99 and the pH (200 microliters alone, 3:45 min) was 4.19 and 2.81 and 2.69 and 4.01 and 3.95. The pH (200 microliters alone, 4:00 min) was 4.16 and 2.78 and 2.69 and 3.98 and 3.93, the pH (200 microliters alone, 4:15 min) was 4.13 and 2.75 and 2.68 and 3.93 and 3.90 and the pH (200 microliters alone, 4:30 min) was 4.11 and 2.74 and 2.66 and 3.90 and 3.89. For the same compound, the pH (200 microliters alone, 4:45 min) was 4.08 and 2.72 and 2.63 and 3.86 and 3.87, the pH (200 microliters alone, 5:00 min) was 4.07 and 2.70 and 2.93 and 3.82 and 3.86 and the pH (300 microliters alone, 0:00 min) was 5.39 and 6.56 and 6.26 and 5.47 and 5.53. The pH (300 microliters alone, 0:15 min) was 3.92 and 5.16 and 3.67 and 3.76 and 4.63, the pH (300 microliters alone, 0:30 min) was 3.76 and 4.68 and 3.42 and 3.58 and 4.42 and the pH (300 microliters alone, 0:45 min) was 3.74 and 4.42 and 3.3 and 3.47 and 4.36. The pH (300 microliters alone, 1:00 min) was 3.72 and 4.33 and 3.23 and 3.4 and 4.3, the pH (300 microliters alone, 1:15 min) was 3.72 and 4.25 and 3.14 and 3.34 and 4.23 and the pH (300 microliters alone, 1:30 min) was 3.72 and 4.14 and 3.08 and 3.3 and 4.16. The pH (300 microliters alone, 1:45 min) was 3.72 and 4.06 and 2.96 and 3.26 and 4.11, the pH (300 microliters alone, 2:00 min) was 3.72 and 3.99 and 2.93 and 3.19 and 4.05 and the pH (300 microliters alone, 2:15 min) was 3.72 and 3.91 and 2.87 and 3.15 and 4. The pH (300 microliters alone, 2:30 min) was 3.72 and 3.83 and 2.84 and 3.11 and 3.96, the pH (300 microliters alone, 2:45 min) was 3.71 and 3.76 and 2.78 and 3.07 and 3.9 and the pH (300 microliters alone, 3:00 min) was 3.68 and 3.75 and 2.75 and 3 and 3.87. The pH (300 microliters alone, 3:15 min) was 3.66 and 3.75 and 2.67 and 2.96 and 3.8, the pH (300 microliters alone, 3:30 min) was 3.64 and 3.7 and 2.64 and 2.94 and 3.78 and the pH (300 microliters alone, 3:45 min) was 3.61 and 3.63 and 2.63 and 2.89 and 3.74. The pH (300 microliters alone, 4:00 min) was 3.6 and 3.62 and 2.59 and 2.85 and 3.72, the pH (300 microliters alone, 4:15 min) was 3.58 and 2.55 and 2.83 and 3.68 and the pH (300 microliters alone, 4:30 min) was 3.57 and 3.55 and 2.52 and 2.8 and 3.66. For the same compound, the pH (300 microliters alone, 4:45 min) was 3.54 and 3.52 and 2.48 and 2.77 and 3.62 and 3.46, the pH (300 microliters alone, 5:00 min) was 3.52 and 3.48 and 2.47 and 2.74 and 3.6 and 3.45 and the pH (500 microliters alone, 0:00 min) was 5.5 and 6.57 and 5.6 and 5.7 and 6.32. The pH (500 microliters alone, 0:15 min) was 5.4 and 6.45 and 3.78 and 5.6 and 6.25, the pH (500 microliters alone, 0:30 min) was 5.27 and 6.3 and 3.62 and 5.61 and 4.4 and the pH (500 microliters alone, 0:45 min) was 5.11 and 6.2 and 3.45 and 5.46 and 3.9. The pH (500 microliters alone, 1:00 min) was 5 and 6.22 and 3.36 and 5.39 and 3.69, the pH (500 microliters alone, 1:15 min) was 4.84 and 6.21 and 3.34 and 5.2 and 3.68 and the pH (500 microliters alone, 1:30 min) was 4.75 and 6.11 and 3.24 and 4.96 and 3.61. The pH (500 microliters alone, 1:45 min) was 4.61 and 6.11 and 3.21 and 4.82 and 3.6, the pH (500 microliters alone, 2:00 min) was 4.54 and 6.04 and 3.13 and 4.67 and 3.6 and the pH (500 microliters alone, 2:15 min) was 4.61 and 6.02 and 3.09 and 4.55 and 3.6. For the same compound, the pH (500 microliters alone, 2:30 min) was 4.54 and 5.95 and 3.06 and 4.45 and 3.6, the pH (500 microliters alone, 2:45 min) was 4.48 and 5.89 and 3.01 and 4.3 and 3.6 and the pH (500 microliters alone, 3:00 min) was 4.4 and 5.87 and 2.98 and 4.21 and 3.55. The pH (500 microliters alone, 3:15 min) was 4.36 and 5.82 and 2.95 and 4.16 and 3.55, the pH (500 microliters alone, 3:30 min) was 4.32 and 5.75 and 2.92 and 4.13 and 3.52 and the pH (500 microliters alone, 3:45 min) was 4.21 and 5.67 and 2.91 and 4.05 and 3.49. The pH (500 microliters alone, 4:00 min) was 4.18 and 5.65 and 2.88 and 4.03 and 3.47, the pH (500 microliters alone, 4:15 min) was 4.15 and 5.55 and 2.87 and 3.99 and 3.45 and the pH (500 microliters alone, 4:30 min) was 4.13 and 5.5 and 2.85 and 3.95 and 3.45. For the same compound, the pH (500 microliters alone, 4:45 min) was 4.1 and 5.41 and 2.84 and 3.92 and 3.43 and the pH (500 microliters alone, 5:00 min) was 4.08 and 5.33 and 2.84 and 3.9 and 3.42.
